According to PubChem BioAssay AID504847 (National Center for Advancing Translational Sciences (NCATS), 2011):
Hit rate of the full screen: of about 400,000 compounds, about 3,700 (0.93%) were called active. The inconclusive results got no clear call from the source; some entries with a clear call stand among them for comparison. Calls follow the shape of the dose curve; as a rule, active = well fitted inhibition curve with a large enough effect; inconclusive = small, poorly fitted or top-dose-only effect, or another doubt; inactive = no such curve, though single readings can be large or run the other way. Where the call is inconclusive, the potency comes from a doubtful curve fit.

Sequences of proteins named here, by UniProt entry; tags and fusion partners are left off. A change or cut given only in a name is not applied to a line headed by its entry.
UniProt P11473: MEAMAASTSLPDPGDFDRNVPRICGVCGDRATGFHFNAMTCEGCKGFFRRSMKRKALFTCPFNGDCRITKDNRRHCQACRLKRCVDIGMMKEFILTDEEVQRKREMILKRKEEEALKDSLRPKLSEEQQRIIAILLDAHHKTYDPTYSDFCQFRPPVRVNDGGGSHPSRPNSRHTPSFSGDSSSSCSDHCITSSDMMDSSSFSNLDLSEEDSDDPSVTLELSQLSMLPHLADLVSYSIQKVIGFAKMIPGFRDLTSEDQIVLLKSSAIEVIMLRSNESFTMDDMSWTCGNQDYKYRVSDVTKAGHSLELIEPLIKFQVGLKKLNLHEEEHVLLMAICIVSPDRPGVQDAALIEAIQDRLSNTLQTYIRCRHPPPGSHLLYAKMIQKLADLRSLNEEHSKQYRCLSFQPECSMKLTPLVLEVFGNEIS

Molecular target: Vitamin D3 receptor (Homo sapiens) (UniProt P11473)
Assay: Inhibitors of the vitamin D receptor (VDR): qHTS
Conditions: VDR-SRC2-3 peptide fluorescence polarization, 2 h; max response, negative = inhibition: active compounds read low
Outline: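 Fluorescence polarization assay of small-molecule disruption of VDR binding to coregulator peptide SRC2-3. Compounds and controls pin-transferred, then read after 2 h incubation at ambient room temperature.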
% is scaled to controls: 0 for no effect and ±100 for the full control effect; potency is read from the fitted curve at half-maximal effect.

With CCOC(=O)c1cc(CC)sc1/N=C/c1c(O)[nH]c(=S)[nH]c1=O as the compound, how does the Potency read?
Its Potency is inconclusive: 100 µM [inhibitor, single point].

How did the Potency turn out when CN1C(=O)NC(=O)/C(=C/c2ccc(C(=O)O)cc2)C1=O was run?
The Potency was inconclusive: 22.4 µM [inhibitor, partial curve, poor fit].

C=CC[C@@H](CC/C=C/C=C/CC/C=C\[C@@H]1CSC([C@@H]2C[C@@H]2C)=N1)OC was tested. Which Potency did it give?
The Potency was inconclusive: 39.8 µM [inhibitor, partial curve].

Which Potency does the source give for CCOc1cc(/C=C2\C(=O)NC(=O)N(CCc3ccc(F)cc3)C2=O)ccc1O here?
The Potency was inconclusive: 50.1 µM [inhibitor, partial curve, poor fit].

Which Potency does the source give for CC(=O)OC1CC2C(C)(C)C(O)C=C[C@@]2(C)C2CC[C@]3(C)C(=CC(=O)OC3c3ccoc3)[C@]12C (stereo partly specified) here?
Its Potency is active: 25.1 µM.

Which Potency does the source give for CSc1ncc(/C=C2/C(=O)NC(=O)N(C)C2=O)cn1 here?
The Potency was inconclusive: 56.2 µM [inhibitor, partial curve, poor fit].

With CCCCCCC(C)(C)c1cc(OC)c2c(c1)OC(C)(C)[C@@H]1CC=C(C)C[C@@H]21 as the compound, how does the max response, negative = inhibition read?
The max response, negative = inhibition was inactive: -4.76%.

O=C(Oc1ccccc1)N1CCC2(CCCN(Cc3nccs3)C2)CC1 was tested. Which Potency did it give?
Its Potency is inconclusive: 56.2 µM [inhibitor, partial curve, poor fit].

How did the max response, negative = inhibition turn out when COc1ccc(C2NCc3ccccc3-n3cccc32)cc1 (stereo unspecified) was run?
Its max response, negative = inhibition is inactive: -5.31%.

CCOC(=O)N1CCN(/[N+]([O-])=N/Oc2ccc([N+](=O)[O-])cc2[N+](=O)[O-])CC1C (stereo unspecified) was tested. Which Potency did it give?
The Potency was active: 56.2 µM.

How did the Potency turn out when CCCc1[nH]nc2c1C(c1ccc(OC)c(Cn3nnc4ccccc43)c1)C(C#N)=C(N)O2 (stereo unspecified) was run?
Its Potency is inconclusive: 35.5 µM [inhibitor, single point].

Which Potency does the source give for CCOP(=O)(CCP(=O)(OCC)OCC)OCC.C[CH2][Sn]([Cl])([Cl])[CH2]C here?
The Potency was inconclusive: 56.2 µM [inhibitor, partial curve, poor fit].

For O=c1[nH]c(O)c(/C=C2\C=NN=C2c2ccccc2)c(=O)[nH]1, which Potency is on record?
Its Potency is inconclusive: 44.7 µM [inhibitor, partial curve].

How did the Potency turn out when O=[N+]([O-])C(Br)(CO)CO was run?
The Potency was active: 5.62 µM.

Cc1nn(Cc2ccccc2)c(Cl)c1C(=O)O was tested. Which max response, negative = inhibition did it give?
The max response, negative = inhibition was inactive: 13.2%.

How did the Potency turn out when COC(=O)COc1ccc(/C=C2\C(=O)NC(=S)N(c3ccc(C)cc3)C2=O)cc1OC was run?
The Potency was active: 25.1 µM.

How did the Potency turn out when Cc1cccc(N2C(=O)/C(=C/c3ccc(CN(CCC#N)S(C)(=O)=O)o3)C(=O)NC2=S)c1 was run?
Its Potency is inconclusive: 20 µM [inhibitor, partial curve].

Which Potency does the source give for CCOP(=O)(Cc1cc(C(C)=O)c(C)o1)OCC here?
The Potency was inconclusive: 0.631 µM [inhibitor, full curve, poor fit].

CCCCC/C=C\C/C=C\CCCCCCCC(=O)NCCO was tested. Which Potency did it give?
The Potency was inconclusive: 79.4 µM [inhibitor, partial curve, poor fit].

With COc1ccc(OC)c(CN2CCN(C(=O)Cc3ccccc3)CC2)c1 as the compound, how does the Potency read?
Its Potency is inconclusive: 100 µM [inhibitor, single point].

For O=C1NC(=S)NC(=O)C1C/C=C/c1ccccc1, which Potency is on record?
Its Potency is active: 79.4 µM.

C#C[C@]1(O)CC[C@H]2[C@@H]3CCC4=CC(=O)CCC4=C3C=C[C@@]21CC was tested. Which Potency did it give?
The Potency was inconclusive: 89.1 µM [inhibitor, single point].

Which Potency does the source give for O=C1C=CC(=O)C(Cl)=C1 here?
Its Potency is active: 25.1 µM.

Which Potency does the source give for CN1C(=O)C(=Cc2ccccc2Oc2ccc(Cl)c(F)c2)C(=O)N(C)C1=O here?
The Potency was active: 28.2 µM.

For Cc1cc2c(cc1C)NP(=S)(c1ccccc1)N2, which Potency is on record?
The Potency was inconclusive: 89.1 µM [inhibitor, partial curve, poor fit].

With CC1=C(C(=O)O)N2C(=O)C(NC(=O)c3nn(C)cc3[N+](=O)[O-])C2SC1 (stereo unspecified) as the compound, how does the Potency read?
The Potency was inconclusive: 6.31 µM [inhibitor, full curve, poor fit].

With O=C(C(=O)N1CC=C(c2ccccc2)CC1)c1c[nH]c2ccccc12 as the compound, how does the Potency read?
Its Potency is inconclusive: 63.1 µM [inhibitor, partial curve, poor fit].

How did the Potency turn out when CN(C)CC(C(=O)Cc1ccccc1)c1ccccc1 (stereo unspecified) was run?
Its Potency is active: 35.5 µM.

C=C(C=O)C[C@@H]1C[C@H](O)C2OC3C[C@]4(C)OC5/C=C\CC6OC7C(CC=CCC6OC5CCCC4OC3CC2O1)OC1CC2OC3CC(=O)OC3C[C@@H](C)C[C@@]2(C)OC1C[C@@H]7C (stereo partly specified) was tested. Which Potency did it give?
The Potency was inconclusive: 28.2 µM [inhibitor, full curve, poor fit].

For COc1cc(/C=C2\C[C@H]3[C@@H]4CC=C5C[C@@H](N6CCCC6)CC[C@]5(C)[C@H]4CC[C@]3(C)[C@H]2O)cc(OC)c1OC, which Potency is on record?
The Potency was inconclusive: 79.4 µM [inhibitor, single point].

Which max response, negative = inhibition does the source give for Cn1cc(C=C(C#N)C#N)c2ccccc21 here?
The max response, negative = inhibition was inactive: -26.2%.

Which Potency does the source give for Nn1c(CSc2nc3ccccc3o2)nnc1CSc1nc2ccccc2o1 here?
Its Potency is inconclusive: 89.1 µM [inhibitor, single point].

Which Potency does the source give for COc1ccc(-n2c(=S)[nH]c3c(sc(=S)n3-c3ccccc3)c2=O)c(OC)c1 here?
Its Potency is active: 35.5 µM.

With CN(C)S(=O)(=O)c1cc(NC(=O)C[N+]23CCN(CC2)CC3)ccc1Cl as the compound, how does the max response, negative = inhibition read?
Its max response, negative = inhibition is inactive: -4.95%.

Which max response, negative = inhibition does the source give for CC1(C)OC(c2ccccc2)=C/C(=C/C=C2C(=O)NC(=O)NC2=O)O1 here?
Its max response, negative = inhibition is inactive: -8.14%.

With CC(C)c1cccc(O)c(=O)c1 as the compound, how does the Potency read?
The Potency was inconclusive: 56.2 µM [inhibitor, partial curve, poor fit].

With COC(=O)C1=C(c2ccc(-c3ccccc3)c(F)c2)C[C@@H]2CC[C@H]1N2C(=O)NCc1cccc2ccccc12 as the compound, how does the Potency read?
Its Potency is inconclusive: 2.82 µM [inhibitor, partial curve, poor fit].

How did the Potency turn out when CS(=O)(=O)N1CCN(C(=N)N[N+](=O)[O-])CC1 was run?
The Potency was inconclusive: 31.6 µM [inhibitor, single point].

With C=CCN1C(=O)/C(=C/c2ccc(Br)s2)C(=O)NC1=S as the compound, how does the Potency read?
Its Potency is active: 20 µM.

COc1ccc(C(=O)CC2C(=O)N(C)C(=O)N(C)C2=O)cc1 was tested. Which Potency did it give?
Its Potency is inconclusive: 31.6 µM [inhibitor, partial curve, poor fit].

With CCCCCc1cc(O)c2c(c1)OC(C)(C)[C@@H]1CCC(C(=O)O)=C[C@H]21 as the compound, how does the Potency read?
Its Potency is inconclusive: 50.1 µM [inhibitor, partial curve].
